Common to all, as to test: co-IP
Test [1] concerns the target Flag-KPNA3 (karyopherin alpha 3, importin alpha) (human) (UniProt O00505).
The target of test [2] is Flag-KPNA1 (karyopherin alpha 1, importin alpha) (human) (UniProt P52294).
Test [3] concerns the target Flag-KPNA4 (karyopherin alpha 4, importin alpha) (human) (UniProt O00629).

Amino acid sequences for entries named in this document (tags omitted).
UniProt O00505: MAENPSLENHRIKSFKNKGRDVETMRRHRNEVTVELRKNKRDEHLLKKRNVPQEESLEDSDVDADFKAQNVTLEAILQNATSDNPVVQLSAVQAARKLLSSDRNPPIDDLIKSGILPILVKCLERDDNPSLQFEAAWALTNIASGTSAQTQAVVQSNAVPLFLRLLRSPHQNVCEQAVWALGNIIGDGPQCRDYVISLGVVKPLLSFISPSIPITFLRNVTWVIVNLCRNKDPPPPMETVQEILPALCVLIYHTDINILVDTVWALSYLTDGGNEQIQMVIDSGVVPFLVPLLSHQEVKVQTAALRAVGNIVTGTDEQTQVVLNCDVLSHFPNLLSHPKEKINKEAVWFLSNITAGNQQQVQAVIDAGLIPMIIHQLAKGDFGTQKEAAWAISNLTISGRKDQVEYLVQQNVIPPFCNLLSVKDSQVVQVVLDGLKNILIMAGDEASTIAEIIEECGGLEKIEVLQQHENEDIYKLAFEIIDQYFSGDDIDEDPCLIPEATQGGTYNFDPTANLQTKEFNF
UniProt P52294: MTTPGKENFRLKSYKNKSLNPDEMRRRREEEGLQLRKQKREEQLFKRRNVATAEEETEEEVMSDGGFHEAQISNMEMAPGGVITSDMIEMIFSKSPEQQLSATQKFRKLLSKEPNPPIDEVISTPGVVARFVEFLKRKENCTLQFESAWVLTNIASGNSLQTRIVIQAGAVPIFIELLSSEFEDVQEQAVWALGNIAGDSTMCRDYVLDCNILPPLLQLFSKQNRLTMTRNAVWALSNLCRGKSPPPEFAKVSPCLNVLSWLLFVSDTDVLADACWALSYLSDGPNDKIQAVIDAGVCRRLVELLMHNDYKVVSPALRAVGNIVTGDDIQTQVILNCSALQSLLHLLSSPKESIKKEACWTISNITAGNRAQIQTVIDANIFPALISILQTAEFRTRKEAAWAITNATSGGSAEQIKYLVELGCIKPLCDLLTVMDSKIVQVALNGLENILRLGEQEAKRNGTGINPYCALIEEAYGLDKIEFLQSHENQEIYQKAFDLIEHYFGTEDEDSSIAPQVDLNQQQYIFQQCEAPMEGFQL
UniProt O00629: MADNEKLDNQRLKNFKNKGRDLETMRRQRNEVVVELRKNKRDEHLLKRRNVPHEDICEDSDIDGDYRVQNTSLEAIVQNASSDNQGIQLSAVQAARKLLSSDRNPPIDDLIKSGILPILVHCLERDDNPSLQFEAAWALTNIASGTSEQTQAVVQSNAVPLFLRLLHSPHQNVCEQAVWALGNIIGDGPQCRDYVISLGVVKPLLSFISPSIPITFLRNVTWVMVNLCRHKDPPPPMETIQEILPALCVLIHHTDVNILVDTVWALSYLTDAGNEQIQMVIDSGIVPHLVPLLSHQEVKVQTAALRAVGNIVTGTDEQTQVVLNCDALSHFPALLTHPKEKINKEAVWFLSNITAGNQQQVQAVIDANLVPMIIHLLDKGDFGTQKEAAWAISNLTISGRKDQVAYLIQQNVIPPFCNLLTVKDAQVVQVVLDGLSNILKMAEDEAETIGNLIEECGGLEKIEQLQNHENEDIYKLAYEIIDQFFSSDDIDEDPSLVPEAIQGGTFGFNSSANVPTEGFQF

Results are given in words; binding and its absence hold for the method and conditions named. In cells and extracts the contact can be indirect. Some binding calls cover weakened binding; strength is not graded here. Sequences can lack the tags named with a protein.

B1: GST-tagged IRF3 DBD (DNA-binding domain, aa 1-140) (domain or fragment, UniProt Q14653 1-140)
chain: MGTPKPRILPWLVSQLDLGQLEGVAWVNKSRTRFRIPWKHGLRQDAQQEDFGIFQAWAEATGAYVPGRDKPDLPTWKRNFRSALNRKEGLRLAEDRSKDPHDPHKIYEFVNSGVGDFSQPDTSPDTNGGGSTSDTQEDIL
On to B1, for which the binding result in test [1], in test [2] and in test [3] was “binds” each time.

B2: Strep-tagged IRF3 (protein, UniProt Q14653 1-427)
chain: MGTPKPRILPWLVSQLDLGQLEGVAWVNKSRTRFRIPWKHGLRQDAQQEDFGIFQAWAEATGAYVPGRDKPDLPTWKRNFRSALNRKEGLRLAEDRSKDPHDPHKIYEFVNSGVGDFSQPDTSPDTNGGGSTSDTQEDILDELLGNMVLAPLPDPGPPSLAVAPEPCPQPLRSPSLDNPTPFPNLGPSENPLKRLLVPGEEWEFEVTAFYRGRQVFQQTISCPEGLRLVGSEVGDRTLPGWPVTLPDPGMSLTDRGVMSYVRHVLSCLGGGLALWRAGQWLWAQRLGHCHTYWAVSEELLPNSGHGPDGEVPKDKEGGVFDLGPFIVDLITFTEGSGRSPRYALWFCVGESWPQDQPWTKRLVMVKVVPTCLRALVEMARVGGASSLENTVDLHISNSHPLSLTSDQYKAYLQDLVEGMDFQGPGES
Regarding B2, the binding result in test [2] was “binds”.

Values taken from publication PMC10889005.
